Article PMC5996148
Several values for one entry are separate records, joined by “and”; a condition that tells them apart may be missing. Equal values may be shown once. The list shows a part of the results.

Legend:
Assay in all cases: protein microarray (ProtoArray v5.0), streptavidin-Alexa Fluor 647
Conditions in all cases: 3'-biotin; 20 mM Tris (pH 7.5), 5 mM MgCl2, 100 mM KCl, 0.1% Tween-20, A/T-rich and random oligonucleotide blockers; temperature not stated; high values mean tight binding
[1] = system: PTMS (human)
[2] = system: PTPN1 (human)
[3] = system: PTPN2 (human)
[4] = system: PTPN5 (human)
[5] = system: PVALB (human)
[6] = system: PXN (human)
[7] = system: PYCR1 (human)
[8] = system: Paladin (human)
[9] = system: Pantothenate kinase 1 (human)
[10] = system: Parvalbumin alpha (human)

**Q.** Which results are given for “GGTGACAGGGGTATGGGGAGGGG [G4-2 biotinylated (Ct1)]”?
**A.** binding signal [1]: -0.371 z-score; binding signal [2]: -0.39 z-score; binding signal [3]: -0.382 z-score; binding signal [4]: -0.379 z-score; binding signal [5]: -0.386 z-score; binding signal [6]: -0.379 z-score; binding signal [7]: -0.385 z-score; binding signal [8]: -0.365 z-score; binding signal [9]: -0.366 z-score and -0.392 z-score; binding signal [10]: -0.391 z-score
